For assay [1], the target named is His-tagged PTH receptor (Abcam ab182670), extracellular domain (UniProt Q03431). Nature of the assay: AlphaLISA, sFLAG-tagged PTH on anti-FLAG donor beads, His-tagged receptor on nickel chelate acceptor beads.
Assay [2] shares this target. The assay can be described thus: AlphaLISA cross titration (FIG. 10b).
Assay [3] has as its target Fc-tagged extracellular domain of the GLP-1 receptor (Sino Biological, 13944-H02H) (UniProt P43220). The assay can be described thus: AlphaLISA cross titration (FIG. 9e).
For assay [4] the target is unchanged. Nature of the assay: AlphaLISA, sFLAG-tagged GLP-1 on anti-FLAG donor beads, Fc-tagged receptor ECD on Protein A acceptor beads.

Sequences of proteins named here, by UniProt entry; tags and fusion partners are left off. A change or cut given only in a name is not applied to a line headed by its entry. Residues count along the entry.
UniProt Q03431, residues 27-186: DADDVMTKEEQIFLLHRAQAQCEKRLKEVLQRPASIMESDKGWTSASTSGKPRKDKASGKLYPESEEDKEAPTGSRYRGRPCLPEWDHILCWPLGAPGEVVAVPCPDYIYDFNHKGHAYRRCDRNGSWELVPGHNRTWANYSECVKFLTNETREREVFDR
UniProt P43220, residues 24-145: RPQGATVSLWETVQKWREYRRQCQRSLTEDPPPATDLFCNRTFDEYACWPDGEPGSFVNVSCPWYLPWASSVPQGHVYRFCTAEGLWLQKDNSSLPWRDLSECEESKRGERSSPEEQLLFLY

No constants are given. Whether binding was seen depends on the method and setting. Some binding calls cover weakened binding; strength is not graded here. Tags and fused reporters may be left off the sequences shown.

B1: sFLAG-tagged PTH produced in CFPS (ligand)
chain: SVSEIQLMHNLGKHLNSMERVEWLRKKLQDVHNFVALGAPLAPRDAGSQRPRKKEDNVLVESHEKSLGEADKADVNVLTKAKSQGGGSGGGDYKDEDLL
For the molecule B1, the binding entry in assay [1] and in assay [2] was “binds” throughout.

B2: sFLAG tagged GLP-1 produced in CFPS (peptide)
peptide: HAEGTFTSDVSSYLEGQAAKEFIAWLVKGRGGGGSGGGDYKDEDLL
Turning to B2, the binding entry in assay [3] and in assay [4] was “binds” throughout.

Values taken from patent publication US20240383959A1, “CELL-FREE METHODS AND COMPOSITIONS COMPRISING TAGLESS THERAPEUTIC HORMONES” (Northwestern University, priority 2021, published 2024).
